Values from PubChem BioAssay AID1259331 (Drosophila RNAi Screening Center, 2017)

Test: 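Fly transmembrane-protein genes that affect zinc toxicity in cultured cells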 (primary screen)
Cells: Drosophila S2R+ cells
Reagent: long dsRNA against Drosophila genes
Duration: 5 days (4 days knock-down, then 1 day zinc)
Conditions: zinc chloride at 15 mM final level for 1 day
Measured: 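Total cellular ATP measured by luciferase luminescence as a viability proxy, turned into Z scores from three plate copies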
Scale: mean Z score: higher = more ATP than other wells, better survival under zinc; ATP luminescence: higher = more ATP, more viable cells
Rule for the call: 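Hit when the absolute Z score is greater than 1.5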
Meaning of the calls: active = hit, ATP up or down; inactive = not a hit
This is a random part of about 3,100 reagents tested. Of all reagents, 126 (4.1%) were called active. 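Calls are per reagent; zinc was so toxic that few knock-downs lowered ATP further, so most hits raise ATP.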 The raw values are shown without normalisation. Entries without a mark were called inactive. The record does not give: the amount of reagent.

Knock-down of sut1 (sugar transporter 1) [DRSC07700] came out at: mean Z score -0.534; ATP luminescence, replicate 1 = 27165; ATP luminescence, replicate 2 = 28296.
For CG10165 [DRSC02017], the entry reads mean Z score -0.426; ATP luminescence, replicate 1 = 50069; ATP luminescence, replicate 2 = 50361.
Depletion of Lrch (Leucine-rich-repeats and calponin homology domain protein) [DRSC02996] gave: mean Z score -0.0846; ATP luminescence, replicate 1 = 54459; ATP luminescence, replicate 2 = 55625.
Against Lrch (Leucine-rich-repeats and calponin homology domain protein) [DRSC29145] the deposit lists mean Z score -0.11; ATP luminescence, replicate 1 = 57099; ATP luminescence, replicate 2 = 62336.
CG10702 [DRSC02097] gave mean Z score 0.0271; ATP luminescence, replicate 1 = 58439; ATP luminescence, replicate 2 = 54645.
CG10702 [DRSC36848] showed mean Z score -0.276; ATP luminescence, replicate 1 = 45371; ATP luminescence, replicate 2 = 44377.
CG10702 [DRSC36849] scored mean Z score -0.275; ATP luminescence, replicate 1 = 46571; ATP luminescence, replicate 2 = 41908.
Tsp42Ep (Tetraspanin 42Ep) [DRSC06871] gave mean Z score -0.531; ATP luminescence, replicate 1 = 38685; ATP luminescence, replicate 2 = 39508.
Against Ulp1 [DRSC19339], the entry reads mean Z score 0.513; ATP luminescence, replicate 1 = 54333; ATP luminescence, replicate 2 = 52178.
With knock-down of Ulp1 [DRSC39704], the screen gave mean Z score 0.67; ATP luminescence, replicate 1 = 67886; ATP luminescence, replicate 2 = 64705.
After knock-down of GABA-B-R1 (metabotropic GABA-B receptor subtype 1) [DRSC22038], the record shows mean Z score 0.244; ATP luminescence, replicate 1 = 49449; ATP luminescence, replicate 2 = 50824.
Against GABA-B-R1 (metabotropic GABA-B receptor subtype 1) [DRSC39785], the values are mean Z score 0.194; ATP luminescence, replicate 1 = 58163; ATP luminescence, replicate 2 = 59792.
With knock-down of bves [DRSC20520], the record shows mean Z score 0.0813; ATP luminescence, replicate 1 = 43578; ATP luminescence, replicate 2 = 49435.
After knock-down of bves [DRSC20555], the record shows mean Z score -0.0863; ATP luminescence, replicate 1 = 39820; ATP luminescence, replicate 2 = 43907.
For CG8925 [DRSC16455] the deposit lists mean Z score 0.00185; ATP luminescence, replicate 1 = 37896; ATP luminescence, replicate 2 = 60958.
For CG8925 [DRSC16457], the values are mean Z score -0.112; ATP luminescence, replicate 1 = 40108; ATP luminescence, replicate 2 = 41599.
Elo68alpha (Elongase 68alpha) [DRSC22725] scored mean Z score -0.156; ATP luminescence, replicate 1 = 46143; ATP luminescence, replicate 2 = 39045.
Silencing of CG16727 [DRSC15139] gave: mean Z score 0.239; ATP luminescence, replicate 1 = 39199; ATP luminescence, replicate 2 = 63856.
After knock-down of CG16727 [DRSC26820], the screen gave mean Z score -0.43; ATP luminescence, replicate 1 = 57065; ATP luminescence, replicate 2 = 57682.
With knock-down of CG32091 [DRSC10820], the screen gave mean Z score -0.15; ATP luminescence, replicate 1 = 72620; ATP luminescence, replicate 2 = 53398.
For CG32091 [DRSC39787] the deposit lists mean Z score 0.115; ATP luminescence, replicate 1 = 57469; ATP luminescence, replicate 2 = 58231.
CG33969 [DRSC11777] scored mean Z score -0.123; ATP luminescence, replicate 1 = 42354; ATP luminescence, replicate 2 = 43145.
After knock-down of tadr (torn and diminished rhabdomeres) [DRSC03177], the record shows mean Z score -0.235; ATP luminescence, replicate 1 = 30147; ATP luminescence, replicate 2 = 32530.
Silencing of tadr (torn and diminished rhabdomeres) [DRSC39590] gave: mean Z score -0.216; ATP luminescence, replicate 1 = 53554; ATP luminescence, replicate 2 = 59209.

Reprinted from above for reference:
CG8925 [DRSC16457]: mean Z score = -0.112; ATP luminescence, replicate 1 = 40108; ATP luminescence, replicate 2 = 41599
Elo68alpha (Elongase 68alpha) [DRSC22725]: mean Z score = -0.156; ATP luminescence, replicate 1 = 46143; ATP luminescence, replicate 2 = 39045
